Some of the results follow.
Compound: CNCc1ccc(-c2[nH]c3cc(F)cc4c3c2CCNC4=O)cc1 [rucaparib]
Test: log2 fold change, soluble protein after heating vs DMSO (PISA); higher = thermal stabilisation; K562 cells, 10 uM, 30 min; active = over 0.2 and 3.5 SD of the protein, either way, in both replicates (recomputed)
Outline: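 K562 cells at 2×10^6 cells/mL were given 10 μM compound for 30 min. Aliquots then went through 3 min of heating across 48°C-58°C, were pooled, and were extracted in PBS with 0.5% NP-40 at 4°C, and the supernatant after 21,000xg for 90 min was quantified by TMTpro 16plex LC-MS/MS with channel sums equalised. Thermal stability relative to control samples, from duplicates, is given as log2 fold change.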

Protein sequences, listed by entry. Tags and fused reporters are not part of them. Lines headed by an entry give the natural chain unless they say otherwise; changes in a name come on top.
UniProt P48645: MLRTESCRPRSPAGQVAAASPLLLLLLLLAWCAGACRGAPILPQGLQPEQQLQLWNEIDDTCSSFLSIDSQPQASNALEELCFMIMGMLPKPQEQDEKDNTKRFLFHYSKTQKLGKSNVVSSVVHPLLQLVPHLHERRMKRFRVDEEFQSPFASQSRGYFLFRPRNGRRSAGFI
UniProt Q00653: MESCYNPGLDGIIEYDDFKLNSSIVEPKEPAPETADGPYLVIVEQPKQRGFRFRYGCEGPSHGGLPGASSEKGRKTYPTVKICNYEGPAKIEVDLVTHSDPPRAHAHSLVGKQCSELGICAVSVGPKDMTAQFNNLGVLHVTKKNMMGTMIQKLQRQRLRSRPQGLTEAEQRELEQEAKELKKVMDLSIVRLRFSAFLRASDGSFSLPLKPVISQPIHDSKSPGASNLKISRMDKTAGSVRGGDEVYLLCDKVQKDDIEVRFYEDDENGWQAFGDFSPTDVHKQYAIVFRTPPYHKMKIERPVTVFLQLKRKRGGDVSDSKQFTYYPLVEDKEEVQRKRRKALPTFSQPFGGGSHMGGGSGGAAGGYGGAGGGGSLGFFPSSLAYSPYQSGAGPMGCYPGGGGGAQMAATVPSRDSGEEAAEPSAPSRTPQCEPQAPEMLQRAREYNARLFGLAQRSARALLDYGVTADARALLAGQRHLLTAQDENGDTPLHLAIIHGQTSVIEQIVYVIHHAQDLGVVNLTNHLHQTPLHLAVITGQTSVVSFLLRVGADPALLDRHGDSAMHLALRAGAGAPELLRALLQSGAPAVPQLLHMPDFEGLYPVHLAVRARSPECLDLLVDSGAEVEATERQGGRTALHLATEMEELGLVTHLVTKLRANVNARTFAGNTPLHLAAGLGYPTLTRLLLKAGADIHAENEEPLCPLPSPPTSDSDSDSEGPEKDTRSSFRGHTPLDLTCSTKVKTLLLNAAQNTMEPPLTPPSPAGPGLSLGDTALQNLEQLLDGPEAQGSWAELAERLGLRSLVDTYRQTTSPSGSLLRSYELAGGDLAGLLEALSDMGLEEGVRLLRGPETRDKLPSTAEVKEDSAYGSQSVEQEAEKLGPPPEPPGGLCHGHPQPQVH
UniProt Q96T66: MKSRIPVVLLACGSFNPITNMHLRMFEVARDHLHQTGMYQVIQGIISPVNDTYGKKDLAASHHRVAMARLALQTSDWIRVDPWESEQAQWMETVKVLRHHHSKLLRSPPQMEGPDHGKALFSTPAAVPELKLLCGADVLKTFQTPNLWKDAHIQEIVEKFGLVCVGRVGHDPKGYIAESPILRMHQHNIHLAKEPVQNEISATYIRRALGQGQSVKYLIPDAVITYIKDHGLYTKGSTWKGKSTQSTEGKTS
UniProt Q8N5F7: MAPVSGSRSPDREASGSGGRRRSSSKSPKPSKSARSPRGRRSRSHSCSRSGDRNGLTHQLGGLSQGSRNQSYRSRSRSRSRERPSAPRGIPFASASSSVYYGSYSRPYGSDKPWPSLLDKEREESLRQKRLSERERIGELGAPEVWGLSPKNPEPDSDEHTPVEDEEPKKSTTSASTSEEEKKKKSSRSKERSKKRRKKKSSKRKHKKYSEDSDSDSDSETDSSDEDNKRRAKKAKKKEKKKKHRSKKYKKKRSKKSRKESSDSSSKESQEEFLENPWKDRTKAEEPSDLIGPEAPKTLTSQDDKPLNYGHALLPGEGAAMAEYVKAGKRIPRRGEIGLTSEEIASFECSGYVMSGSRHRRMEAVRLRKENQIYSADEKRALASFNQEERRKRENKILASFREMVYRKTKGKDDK
UniProt O00746: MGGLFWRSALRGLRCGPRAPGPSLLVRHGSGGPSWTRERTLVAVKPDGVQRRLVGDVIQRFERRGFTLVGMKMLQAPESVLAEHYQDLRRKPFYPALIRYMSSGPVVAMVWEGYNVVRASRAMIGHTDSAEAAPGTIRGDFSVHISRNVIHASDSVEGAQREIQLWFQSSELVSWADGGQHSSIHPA
UniProt Q6KC79: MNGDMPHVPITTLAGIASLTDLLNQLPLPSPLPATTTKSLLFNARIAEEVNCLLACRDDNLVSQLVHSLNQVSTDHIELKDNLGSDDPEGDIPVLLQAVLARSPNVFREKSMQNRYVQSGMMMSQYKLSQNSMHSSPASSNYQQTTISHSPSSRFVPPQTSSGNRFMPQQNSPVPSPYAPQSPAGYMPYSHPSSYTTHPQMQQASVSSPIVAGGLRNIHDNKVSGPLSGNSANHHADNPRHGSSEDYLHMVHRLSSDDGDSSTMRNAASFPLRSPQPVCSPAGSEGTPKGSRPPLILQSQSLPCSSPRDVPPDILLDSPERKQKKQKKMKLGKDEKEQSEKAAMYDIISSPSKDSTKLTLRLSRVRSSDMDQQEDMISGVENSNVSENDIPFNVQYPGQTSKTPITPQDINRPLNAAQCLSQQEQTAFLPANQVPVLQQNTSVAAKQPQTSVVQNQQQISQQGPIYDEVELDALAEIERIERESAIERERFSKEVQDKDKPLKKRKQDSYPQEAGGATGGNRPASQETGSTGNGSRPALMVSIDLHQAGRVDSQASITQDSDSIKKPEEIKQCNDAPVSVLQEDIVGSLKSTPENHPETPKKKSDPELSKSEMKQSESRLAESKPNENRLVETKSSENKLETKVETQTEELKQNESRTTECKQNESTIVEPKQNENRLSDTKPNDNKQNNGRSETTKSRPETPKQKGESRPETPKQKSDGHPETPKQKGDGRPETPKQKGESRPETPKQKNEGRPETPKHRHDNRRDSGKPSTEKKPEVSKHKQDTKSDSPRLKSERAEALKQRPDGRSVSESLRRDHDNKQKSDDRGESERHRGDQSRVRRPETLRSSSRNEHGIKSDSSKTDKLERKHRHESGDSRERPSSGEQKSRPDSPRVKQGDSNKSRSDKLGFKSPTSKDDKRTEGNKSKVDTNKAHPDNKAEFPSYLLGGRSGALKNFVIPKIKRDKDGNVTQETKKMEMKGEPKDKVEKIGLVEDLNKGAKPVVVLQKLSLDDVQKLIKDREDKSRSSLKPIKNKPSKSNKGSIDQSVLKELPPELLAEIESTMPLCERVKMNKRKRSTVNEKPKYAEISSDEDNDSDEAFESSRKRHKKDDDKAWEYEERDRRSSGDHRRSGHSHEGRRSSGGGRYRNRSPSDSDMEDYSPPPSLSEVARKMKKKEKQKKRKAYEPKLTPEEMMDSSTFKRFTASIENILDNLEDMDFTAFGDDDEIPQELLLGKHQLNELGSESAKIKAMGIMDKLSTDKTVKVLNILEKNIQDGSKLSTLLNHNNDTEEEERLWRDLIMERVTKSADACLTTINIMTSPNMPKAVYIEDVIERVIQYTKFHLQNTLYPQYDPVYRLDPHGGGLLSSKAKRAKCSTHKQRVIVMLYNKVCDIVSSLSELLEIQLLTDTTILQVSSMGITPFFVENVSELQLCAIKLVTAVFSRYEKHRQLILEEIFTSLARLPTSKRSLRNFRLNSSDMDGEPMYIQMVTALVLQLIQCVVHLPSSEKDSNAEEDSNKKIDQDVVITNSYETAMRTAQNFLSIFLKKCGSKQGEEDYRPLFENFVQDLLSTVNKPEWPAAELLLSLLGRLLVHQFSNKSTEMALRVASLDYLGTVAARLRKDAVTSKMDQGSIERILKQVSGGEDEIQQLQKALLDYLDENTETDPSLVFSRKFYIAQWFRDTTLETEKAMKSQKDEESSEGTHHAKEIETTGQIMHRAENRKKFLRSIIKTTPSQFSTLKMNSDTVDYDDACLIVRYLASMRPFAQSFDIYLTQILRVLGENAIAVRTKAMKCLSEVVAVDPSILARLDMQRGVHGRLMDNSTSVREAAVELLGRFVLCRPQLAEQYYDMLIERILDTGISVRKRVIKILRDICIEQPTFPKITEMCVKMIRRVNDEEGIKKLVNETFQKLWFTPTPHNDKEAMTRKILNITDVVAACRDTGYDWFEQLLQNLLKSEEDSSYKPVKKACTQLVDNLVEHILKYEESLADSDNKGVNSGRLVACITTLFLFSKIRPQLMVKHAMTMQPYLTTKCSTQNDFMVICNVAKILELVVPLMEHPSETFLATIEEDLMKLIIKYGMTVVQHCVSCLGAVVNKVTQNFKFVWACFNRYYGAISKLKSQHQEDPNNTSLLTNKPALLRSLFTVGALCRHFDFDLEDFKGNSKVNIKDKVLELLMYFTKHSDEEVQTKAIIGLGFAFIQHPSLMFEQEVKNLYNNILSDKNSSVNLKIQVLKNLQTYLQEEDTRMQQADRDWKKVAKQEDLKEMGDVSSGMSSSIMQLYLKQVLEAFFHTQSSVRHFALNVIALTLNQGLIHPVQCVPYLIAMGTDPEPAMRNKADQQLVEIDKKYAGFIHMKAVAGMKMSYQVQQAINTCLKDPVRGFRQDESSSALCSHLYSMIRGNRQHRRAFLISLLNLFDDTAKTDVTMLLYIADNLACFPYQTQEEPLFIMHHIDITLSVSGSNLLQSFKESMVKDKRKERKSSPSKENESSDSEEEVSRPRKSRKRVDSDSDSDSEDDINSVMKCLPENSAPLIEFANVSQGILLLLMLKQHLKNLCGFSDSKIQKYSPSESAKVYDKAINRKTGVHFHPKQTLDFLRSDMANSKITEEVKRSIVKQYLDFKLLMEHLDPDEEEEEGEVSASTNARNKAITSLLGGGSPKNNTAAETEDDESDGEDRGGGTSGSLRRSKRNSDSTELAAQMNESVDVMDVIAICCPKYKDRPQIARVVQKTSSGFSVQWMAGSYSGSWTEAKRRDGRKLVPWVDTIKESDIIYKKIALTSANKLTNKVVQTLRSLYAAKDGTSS
UniProt O60361, whole entry, looked up: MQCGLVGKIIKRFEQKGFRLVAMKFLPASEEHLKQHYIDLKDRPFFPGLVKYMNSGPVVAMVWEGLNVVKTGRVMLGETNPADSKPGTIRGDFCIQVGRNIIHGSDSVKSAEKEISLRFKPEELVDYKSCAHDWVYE
UniProt P25963: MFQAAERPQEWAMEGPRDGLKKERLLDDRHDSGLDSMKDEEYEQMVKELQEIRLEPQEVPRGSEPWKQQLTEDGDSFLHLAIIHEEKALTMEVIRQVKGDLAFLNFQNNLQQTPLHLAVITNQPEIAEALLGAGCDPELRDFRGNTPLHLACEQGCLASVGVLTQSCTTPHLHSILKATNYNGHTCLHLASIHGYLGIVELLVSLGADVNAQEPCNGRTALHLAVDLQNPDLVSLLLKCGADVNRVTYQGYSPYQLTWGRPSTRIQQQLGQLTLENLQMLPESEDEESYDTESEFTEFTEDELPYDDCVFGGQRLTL
UniProt O95644: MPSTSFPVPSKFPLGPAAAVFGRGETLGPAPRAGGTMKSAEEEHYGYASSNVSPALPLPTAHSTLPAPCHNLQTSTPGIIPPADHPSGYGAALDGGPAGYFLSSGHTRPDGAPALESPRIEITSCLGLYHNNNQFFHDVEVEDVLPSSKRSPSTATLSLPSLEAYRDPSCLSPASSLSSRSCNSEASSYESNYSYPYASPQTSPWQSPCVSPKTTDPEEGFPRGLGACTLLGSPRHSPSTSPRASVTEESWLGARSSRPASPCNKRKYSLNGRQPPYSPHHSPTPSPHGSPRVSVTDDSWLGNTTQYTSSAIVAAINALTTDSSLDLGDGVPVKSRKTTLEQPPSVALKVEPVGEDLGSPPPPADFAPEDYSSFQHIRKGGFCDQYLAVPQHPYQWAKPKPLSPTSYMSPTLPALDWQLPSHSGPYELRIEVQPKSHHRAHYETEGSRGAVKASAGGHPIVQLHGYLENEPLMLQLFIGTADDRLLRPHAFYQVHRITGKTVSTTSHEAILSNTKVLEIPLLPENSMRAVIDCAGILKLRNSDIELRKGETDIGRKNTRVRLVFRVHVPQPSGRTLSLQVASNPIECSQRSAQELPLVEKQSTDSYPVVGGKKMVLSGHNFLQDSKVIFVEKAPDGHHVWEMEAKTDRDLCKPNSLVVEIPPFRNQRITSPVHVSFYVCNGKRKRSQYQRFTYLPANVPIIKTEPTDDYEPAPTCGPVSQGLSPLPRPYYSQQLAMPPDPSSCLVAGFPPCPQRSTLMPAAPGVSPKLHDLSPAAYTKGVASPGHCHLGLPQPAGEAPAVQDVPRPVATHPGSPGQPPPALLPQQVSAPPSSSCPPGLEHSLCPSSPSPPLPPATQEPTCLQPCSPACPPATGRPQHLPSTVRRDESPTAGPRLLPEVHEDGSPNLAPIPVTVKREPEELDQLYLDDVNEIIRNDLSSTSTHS
UniProt Q8IXM6: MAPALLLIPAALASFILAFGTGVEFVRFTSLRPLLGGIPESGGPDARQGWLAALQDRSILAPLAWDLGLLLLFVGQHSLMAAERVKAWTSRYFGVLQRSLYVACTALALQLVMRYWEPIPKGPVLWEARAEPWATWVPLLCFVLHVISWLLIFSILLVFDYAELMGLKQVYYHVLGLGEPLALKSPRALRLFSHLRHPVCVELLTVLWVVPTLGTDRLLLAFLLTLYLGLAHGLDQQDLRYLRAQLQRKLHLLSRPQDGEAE

Target	log2 fold change
NMU (UniProt P48645)	inactive: -0.076
NFKB2 (UniProt Q00653)	inactive: 0.011
NMNAT3 (UniProt Q96T66)	inactive: 0.032
NKAP (UniProt Q8N5F7)	inactive: 0.055
NEO1 (UniProt Q92859)	inactive: 0.411
NME4 (UniProt O00746)	inactive: -0.025
NR3C1 isoform 3 (UniProt P04150)	inactive: 0.065
NSD1 (UniProt Q96L73)	inactive: -0.069
NIPBL (UniProt Q6KC79)	inactive: 0.008
NPC1L1 (UniProt Q9UHC9)	inactive: -0.06
NME2P1 (UniProt O60361)	active: -0.814
NFKBIA (UniProt P25963)	inactive: -0.015
NOS1AP (UniProt O75052)	inactive: -0.403
NFATC1 (UniProt O95644)	inactive: 0.086
NOSTRIN isoform 4 (UniProt Q8IVI9)	inactive: 0.209
NRM (UniProt Q8IXM6)	inactive: -0.041

Reformatted in CSV form: entries from further up
Target,log2 fold change
NIPBL (UniProt Q6KC79),inactive: 0.008
NPC1L1 (UniProt Q9UHC9),inactive: -0.06
